In patent US20260193317A1, “COMBINATION THERAPY WITH ACTRIIB RECEPTOR VARIANTS AND GLP-1 AGONISTS” (35PHARMA Inc., priority 2023, published 2026):

B1: P1307: murine version of bimagrumab, an antibody targeting ActRIIB and ActRIIA; heavy chain SEQ ID NO: 376, light chain SEQ ID NO: 377 (antibody)
heavy: MDWTWRILFLVAAATGTHAQVQLVQSGAEVKKPGASVKVSCKASGYTFTSSYINWVRQAPGQGLEWMGTINPVSGSTSYAQKFQGRVTMTRDTSISTAYMELSSLRSEDTAVYYCARGGWFDYWGQGTLVTVSSAKTTAPSVYPLAPVCGDTTGSSVTLGCLVKGYFPEPVTLTWNSGSLSSGVHTFPAVLQSDLYTLSSSVTVTSSTWPSQSITCNVAHPASSTKVDKKIEPRGPTIKPCPPCKCPAPNAAGGPSVFIFPPKIKDVLMISLSPIVTCVVVDVSEDDPDVQISWFVNNVEVHTAQTQTHREDYNSTLRVVSALPIQHQDWMSGKEFKCKVNNKDLPAPIERTISKPKGSVRAPQVYVLPPPEEEMTKKQVTLTCMVTDFMPEDIYVEWTNNGKTELNYKNTEPVLDSDGSYFMYSKLRVEKKNWVERNSYSCSVVHEGLHNHHTTKSFSRTPGK
light: MVLQTQVFISLLLWISGAYGDIALTQPASVSGSPGQSITISCTGTSSDVGSYNYVNWYQQHPGKAPKLMIYGVSKRPSGVSNRFSGSKSGNTASLTISGLQAEDEADYYCGTFAGGSYYGVFGGGTKLTVLGQPKSTPTLTVFPPSSEELKENKATLVCLISNFSPSGVTVAWKANGTPITQGVDTSNPTKEGNKFMASSFLHLTSDQWRSHNSFTCQVTHEGDTVEKSLSPAECL

Test system: DIO mice
Assay: Body composition in high fat diet mice, alone and in combination with incretin mimetics
Assay type: in vivo
Details: 21 days

| Molecule | food consumption / food intake |
| --- | --- |
| P1229: hActRIIB L33W, 14 aa linker, IgG1-DL Fc; SEQ ID 211 | did not significantly affect food intake |
| B1 | did not significantly affect food intake |
